# Percent effect of library compounds

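Assay of Toxoplasma gondii numbers, read through their beta-galactosidase reporter with a colour substrate. Tested at 50 µM. Higher reads as fewer parasites (inferred from which compounds were picked for retests). Size under these conditions: about 18,000 compounds, about 170 of them at 50% or above in at least one test.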

Results are given as percent effect.
How 0% and 100% were set is not recorded. Most values in the screen are low, and negative values occur.
Compounds were drawn at random from those tested, without regard to their results.

compound | effect
CCn1cc(S(=O)(=O)NCc2cccnc2)cn1 | -11.67%
N#Cc1ccnc(N2CCN(S(N)(=O)=O)CC2)c1 | 4.375%
NC(=O)CNC1CCOCC1 | 1.244%
CCCNC(=O)CN(C)Cc1ccnc(N(C)C)n1 | -0.7642%
Cc1ccc(C#N)cc1NC(=O)N1CCOCC1 | -1.041%
Cc1cc(C(=O)NCC(C)(C)N2CCOCC2)[nH]n1 | -3.924%
CC(C)c1noc(CC2CCNCC2)n1 | 8.164%
c1cn(CC2CCNCC2)nn1 | -6.999%
O=C(Nc1nccs1)N1CCC2(CC1)OCCO2 | -1.163%
Cc1ncc(S(C)(=O)=O)c(NC2(C(N)=O)CCCC2)n1 | -0.6582%
COc1ccc(CNC(=O)CNC2CCCSC2)cc1 (configuration not stated) | -4.1%
CSc1nc2ccsc2c(=O)n1CC(=O)N1CCCC1 | 2.427%
CNC(=O)NC(=O)CCN1CCCC(C(F)(F)F)C1 (configuration not stated) | -7.84%
Cc1cnn(CC(C)NCCCS(C)(=O)=O)c1 (configuration not stated) | 1.59%
CC(=O)N1CCN(CC(O)c2ccc(C)c(C)c2)CC1 (configuration not stated) | -0.2258%
CN(C)CCCOc1cccc(CN2CC(O)C2)c1 | 13.85%
CCc1ccc(CN(CC)[C@H]2COC[C@@H]2O)nc1 | 5.884%
Cn1cnn(Cc2nnc(-c3cccs3)o2)c1=O | -10.16%
CNC1CCN(Cc2ncc(C)c(OC)c2C)CC1 | 36.04%
CN(CCC(=O)N(C)C)CC(=O)Nc1ccc(Br)cn1 | -5.094%
CC(C)c1nc(CN2CCCC3(CCNC3)C2)co1 (configuration not stated) | -11.26%
CCCn1cc(C(=O)N2CCN(CCO)CC2)c(C)n1 | 5.615%
Cc1cnn(CC(C)NCCCS(N)(=O)=O)c1 (configuration not stated) | -2.12%
CCc1noc(CSc2nc(C)cc(N)n2)n1 | -15.61%
O=C(CCn1ccnc1)N1CCCCC1CO (configuration not stated) | 4.895%
CC(C)NC(=O)NC1(C)CCS(=O)(=O)C1 (configuration not stated) | 1.317%
Cn1cc(CC(CN)C(N)=O)cn1 (configuration not stated) | 0.4328%
Cc1occc1SCC(=O)NC1CCOCC1 | -0.8144%
COc1ncccc1C(=O)N1CCc2ccccc2C1 | 43.87%
CC(C)(C)CN(CCCO)C(=O)Nc1ccncc1 | -6.308%
CN(C)C(=O)N1CCC(C(=O)NCC2CC2)CC1 | -2.53%
COC(=O)COC(C)(C)C | 7.551%
CN1CC[C@H]2CN(C(=O)CCCc3cn[nH]c3)C[C@H]21 | -14.48%
O=C(c1ccccc1F)N1CCCC1c1cccnc1 (configuration not stated) | -21.44%
Cc1cc(C(=O)Nc2ncccc2Cl)n(C)n1 | 17.58%
COc1ccc(-n2c(CCN)n[nH]c2=O)cc1OC | -6.397%
COc1ccnc(NCCS(=O)(=O)c2ccccc2)n1 | -8.107%
CC(CO)NC(=O)NCc1nc2ccccc2s1 (configuration not stated) | -7.037%
CSc1ccc(C(=O)NCCCc2ncc[nH]2)cc1 | -14.19%
O=C(NC1CCOCC1)c1cn2ccsc2n1 | 10.09%
COc1ccc(C(=O)N(C)C2CCN(C)CC2)cc1 | -3.547%
O=c1oc(-c2ccccc2)nn1CN1CCCCC1 | 0.3938%
NC(=O)CSc1cnc2ccccc2n1 | 1.435%
c1cnc2c(c1)NCCCN2 | -8.119%
COC[C@@H]1CN(CCCc2ccccc2)C[C@H]1C(N)=O | -11.12%
CC1CN(C)CCN1C(=O)NCc1cccs1 (configuration not stated) | 1.607%
Cc1noc2ncn(CC(=O)NC3CC3)c(=O)c12 | -0.5951%
COc1ccc(C(C)CO)cc1 (configuration not stated) | -12.84%
COc1ccc(C(C)=O)cc1CN1CCCCC1 | -0.9615%
COc1ncccc1CNC(=O)NC1CCS(=O)(=O)C1 (configuration not stated) | -1.32%
CN(C)C(=O)CN(C1CCCC1)C1CC1 | 14.84%
COCCC(=O)NCC(C)c1ccc(F)c(F)c1 (configuration not stated) | -6.361%
CC(C)[C@@H]1CCO[C@@H]1CN | -9.986%
CC(=O)N(C)CC(=O)NCc1nnc2ccccn12 | 18.66%
O=C(c1cccs1)N1CCCN(CCCO)CC1 | -4.475%
O=C(NCCOCc1ccccc1)c1ccco1 | 14.08%
CCC(N)c1cccc(OC)c1OC (configuration not stated) | 10.36%
CCCNC(=O)C(C)NS(=O)(=O)c1ccccc1 (configuration not stated) | -26.89%

Repeated from the top, 5 entries:

{"compound": "CCn1cc(S(=O)(=O)NCc2cccnc2)cn1", "effect": -11.67}
{"compound": "N#Cc1ccnc(N2CCN(S(N)(=O)=O)CC2)c1", "effect": 4.375}
{"compound": "NC(=O)CNC1CCOCC1", "effect": 1.244}
{"compound": "CCCNC(=O)CN(C)Cc1ccnc(N(C)C)n1", "effect": -0.7642}
{"compound": "Cc1ccc(C#N)cc1NC(=O)N1CCOCC1", "effect": -1.041}

Data taken from ChEMBL document CHEMBL3988442, “University of Dundee, Small-Polar-MMV Screening Library” (2021).